For at least one entry, the source does not settle the construct or the ends of the probe. A weaker result is weaker than the reference pair of the same experiment. For some assays here: At least one verdict rests on a figure or table, not on a statement of the authors. For some assays here: Results from cells or extracts need not show a direct contact.
Key:
[1] = test system: hnRNPA1 overexpressed (hnRNPA1A); experiment: pull-down; settings: KYSE150 lysate, pull-down: lysate in 150 mM KCl, 0.5 mM DTT, 0.5% NP-40, 25 mM Tris-HCl pH 7.5, 4 C overnight, protein in a lysate after overexpression, residues 1-320, protein details: SBP-HA or Flag
hnRNPA1-His (hnRNPA1A) [2] = experiment: pull-down; settings: purified protein, consistent with lysate result; pull-down: lysate in 150 mM KCl, 0.5 mM DTT, 0.5% NP-40, 25 mM Tris-HCl pH 7.5, 4 C overnight; recombinant protein; residues 1-320; protein details: His (pET-32a vector)
hnRNPA1-His (hnRNPA1A) [3] = experiment: BLI; settings: RNA on streptavidin probe, higher KD than oligo2, value only in figure; BLI: PBS, 0.002% Tween-20, 0.02% BSA, temperature not stated; recombinant protein; residues 1-320; protein details: His (pET-32a vector)

**Q.** Does “ACAACUGCCACACCGGUAAGGCCAGGCCGC [oligo2-U13C+A14C]” bind ([1]; very little bound)?
**A.** binds more weakly

**Q.** Does “ACAACUGCCACACCGGUAAGGCCAGGCCGC [oligo2-U13C+A14C]” bind (hnRNPA1-His (hnRNPA1A) [2])?
**A.** binds more weakly

**Q.** Does ACAACUGCCACAUAGGUAAGGCCAGGCCGC [oligo2] bind [1]?
**A.** binds

**Q.** Which results are given for “AGCAGCCUCCUCUGCCCUGCUUCUCCCUAGGUUGUU [oligo1]”?
**A.** binding result (hnRNPA1-His (hnRNPA1A) [3]): binds more weakly; binding result ([1]; less than oligo2): binds
